Experimental data from patent US20200299408A1.
Results are given in words; binding and its absence hold for the method and conditions named. A result given as binding can be weak or reduced; the word gives no strength.

Molecular target: cyno CD3 on cyno PBMCs (cynomolgus monkey)
Experiment: FACS on cyno PBMCs

Binder	binding
71H7 (antibody, IgG1, V domains shown) VH: QIQLVQSGPELKKPGETVKISCKASGYTFTNYGMNWVKQAPGKGLKWMGWINTNTGKPTYAEDFKGRFAFSLETSASTAYLQINNLKNEDTATYFCARRGDYRYAWFTYWGQGTLVTVSA VL: QAVVTQESALTTSPGGTVILTCRSSTGAVTTSNYANWVQEKPDHLFTGLIGGTSNRAPGVPVRFSGSLIGDKAALTITGAQTEDDAMYFCALWYSTHFVFGGGTKVTV	binds
13A3 (antibody, IgG2b, V domains shown) VH: EVQLQQSGPELVKPGASVRISCKASGYTFTSYYIHWMKQRPGQGLEWIGWIYPGNVNTKYNEKFKGKATLTADNSSSTANMQLSSLTSEDSAVYFCARNHDYYFDYWGQGTTLTVSS VL: DIVLTQSPSSLAVSAGEKVTMSCKSSQSLLNSRTRKNYLAWYQQKPGQSPKLLIYWASTRESGVPDRFTGSGSGTDFTLTISSVQAEDLAVYYCKQSYILRTFGGGTKLEIK	binds
125A1 (antibody, IgG3, V domains shown) VH: QVQLQQSGPELVKPGASVKMSCKASGYTFTSHYLHWVKQSPGQGLEWIVWINPGDGNVKYNEKFKDKTTVTADRSSTTVHMFLSSLTSEDSAIYFCARDGAYYFDYWGQGTTLTVSS VL: DIVMTQSPSSLAVSAGETVTMNCKSSQSLLNSRTRKNYLAWYQQKPGQSPKLLIYWASTRESGVPDRFTGSGSGTDFTLTISTVQAEDLAVYYCKQSYTLRTFGQGTKVEIK	binds
19B1 (antibody, IgG2b, V domains shown) VH: EVQLQQSGPELVKPGASVRISCKASGYTFTSYYIHWMKQRPGQGLEWIGWIYPGNVNTKYNEKFKGKATLTADNSSSTANMQLSSLTSEDSAVYFCARNHDYYFDYWGQGTTLTVSS VL: GIVMTQSPSSLAVSAGEKVTMSCKSSQSLLNSRTRKNYLAWYQQKPGQSPKLLIYWASTRESGVPDRFTGSGSGTDFTLTISSVQAEDLAVYYCKQSYILRTFGGGTKLEIK	binds

Further lines, results first:

binding	Binder
binds	72H6 (antibody, IgG2a, V domains shown) VH: EVQLQQSGPELVKPGASVKISCKASGYSFTSYYIHWVKQRPGQGLEWIGWIFPGSDNTKYNEKFKGKATLTADTSSSTAYMQLSSLTSEDSAVYFCARNGNYAMDYWGQGTSVTVSS VL: EIVLSQSPSSLAVSAGEKVTMSCKSSQSLLNSRTRKNYLAWYQQKPGQSPKLLIYWASTRESGVPDRFTGSGSGTDFTLTISSVQAEDLAVYYCKQSYTLRTFGGGTKLEIK
binds	38E4 (antibody, IgG3, V domains shown) VH: QVQLQQSGPELVKPGASVTISCTASGFTFTSYYIHWVRQRPGQGLEWIGWIYPENDNTKYNEKFKDKATLTADTSSSTAYMQLSSLTSEDSAVYYCARDGYSRYYFDYWGQGTTLTVSS VL: DIVMTQSPSFLAVSAGEKVTMSCKSSQSLLNSRTRKNYLAWYQQRPGQSPKLLIYWTSTRKSGVPDRFTGSGSGTDFTLTISSVQAEDLAIYYCKQSFILRTFGGGTKLEIK
binds	40G5 (antibody, V domains shown) VH: QVQLQQSGPELVKPGTSVKMSCKASGYTFTNYYIHWVRQRPGQGLEWIGWIYPGDVSTKYNEKFKGKTTLTADKSSSTAYMLLSGLTSEDSAIYFCARDGYSFYYFDYWGQGTTLTVSS VL: DIVLTQSPSSLAVSAGEKVTMSCKSSQSLLNSRTRKNYLTWYQQKPGQSPKLLIYWASTRDSGVPDRFSGSGSGTDFTLTISSVQAEDLAVYYCTQSYTLRTFGGGTKLEIK
binds	21B2 (antibody, IgG3, V domains shown) VH: QVQLQQSGPELVKPGASVRISCKASGYTFTSDYIHWMRQRPGQGLEWIGWIYFGNVNTKYNEKFKGKAILTADKFSSTAYMQLSSLTSEDSAVYFCARDGGYYFDYWGQGTTLTVSS VL: DIVMTQSPSSLAVSAGEKVTMSCKSSQSLLNSRTRKNYLAWYQQKPGQSPKLLIYWASTRESGVPDRFTGSGSGTDFTLTISSVQAEDLAVYYCKQSFTLRTFGQGTKVEIK
binds	30A1 (antibody, IgG1, V domains shown) VH: QVQLKESGPGLVAPSQSLSITCTVSGFSLTNYAIHWVRQPPGKGLDWLGVIWAGGNTKYNSALMSRLSFSKDNSKSQVFLEINSLQTDDTAMYYCAREDSSGYVALDYWGQGTSVTVSS VL: NIVMTQSPSSLAVSAGEKVTMSCKSSQSLLSGRTRKNYLAWYQQKPGQSPKLLIYWASTRESGVPDRFTGSGSGTDFTLTISSVQAEDLAVYYCKQSYYLLTFGAGTKLELK
